# Reference: PubChem BioAssay AID1259308 (NCATS, 2017)
# Purpose: 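Knock-downs that increase output of a recombinant reporter protein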 (primary screen)
# Cells: human HEK293 embryonic kidney cells stably expressing firefly luciferase (HEK-CMV-Luc2-Hygro)
# Reagents: single siRNA against human genes, 0.8 pmol siRNA per well
# Duration: 72 h
# Read-out: 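Luciferase light (ONE-Glo) measured on one replicate plate set and viability (CellTiter-Glo) on the other, scaled to a negative control siRNA, with robust z-scores and luciferase per cell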
# Direction: total luciferase, z-score and total luciferase, % of control: higher = more reporter protein produced; luciferase per cell, z-score: higher = more reporter output per viable cell; viable cells, % of control: higher = more viable cells
# Active means: 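An siRNA counts as active if its total luciferase robust z-score exceeds 3; genes with two or more such siRNAs out of three were retested with fresh siRNAs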
# Meaning of the calls: active = raised luciferase; inactive = no rise
# Shown is a random part of about 59,000 reagents. About 1,510 of them (2.6%) count as active. 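Calls use total luciferase alone and ignore viability, so some active siRNAs may act by altering cell number.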 A number with no mark means an inactive call. The numbers tell different reagents against one gene apart.
gene knocked down,reagent no.,"total luciferase, z-score","total luciferase, % of control","luciferase per cell, z-score","viable cells, % of control"
AGAP1P1 (GeneID 126860),1,-1.34,55.2,-1.27,86.3
AGAP1P1 (GeneID 126860),2,-0.333,75.3,-0.485,95.6
AGAP1P1 (GeneID 126860),3,-0.0642,80.6,-0.268,96.7
PMM2 (GeneID 5373),1,0.107,84,0.139,90.5
PMM2 (GeneID 5373),2,-0.39,74.1,-0.617,97.4
PMM2 (GeneID 5373),3,0.967,101,0.25,106
ECE1 (GeneID 1889),1,-0.685,68.3,-0.244,81.3
ECE1 (GeneID 1889),2,0.115,84.2,0.266,87.7
ECE1 (GeneID 1889),3,-0.159,78.7,0.138,84.8
SPOCK3 (GeneID 50859),1,-1,61.9,-0.42,77.3
SPOCK3 (GeneID 50859),2,-1.6,50.1,-1.23,77.5
SPOCK3 (GeneID 50859),3,-0.338,75.2,-0.449,94.5
RSL24D1 (GeneID 51187),1,-2.51,32,-1.71,56.2
RSL24D1 (GeneID 51187),2,2.31,128,2.64,71.3
RSL24D1 (GeneID 51187),3,-0.861,64.8,-0.96,93.2
AHNAK2 (GeneID 113146),1,1.68,115,1.06,97.3
AHNAK2 (GeneID 113146),2,0.926,100,1.68,72
AHNAK2 (GeneID 113146),3,-1.94,43.3,-1.87,79.3
AP1S2 (GeneID 8905),1,1.88,119,1.4,92.3
AP1S2 (GeneID 8905),2,-0.385,74.2,-0.0149,83.3
AP1S2 (GeneID 8905),3,-0.48,72.3,-0.629,95.4
WFDC13 (GeneID 164237),1,0.3,87.8,-0.177,103
WFDC13 (GeneID 164237),2,-0.591,70.1,0.694,65.3
WFDC13 (GeneID 164237),3,0.531,92.4,0.224,97.4
NUP54 (GeneID 53371),1,-1.72,47.6,-1.4,76.9
NUP54 (GeneID 53371),2,0.558,93,0.152,99.8
NUP54 (GeneID 53371),3,-1.19,58.2,-0.53,74.8
FRMD6 (GeneID 122786),1,-0.464,72.7,-1.03,106
FRMD6 (GeneID 122786),2,1.32,108,1.61,79.1
FRMD6 (GeneID 122786),3,0.183,85.5,0.972,74
RELL2 (GeneID 285613),1,0.215,86.2,0.24,90.4
RELL2 (GeneID 285613),2,-0.586,70.2,1.18,57.5
RELL2 (GeneID 285613),3,0.361,89.1,0.49,87.5
SULF2 (GeneID 55959),1,-0.321,75.5,-0.507,96.4
SULF2 (GeneID 55959),2,-1.73,47.6,-1.8,85.4
SULF2 (GeneID 55959),3,-0.0259,81.4,-0.718,110
TFF1 (GeneID 7031),1,-2.58,30.5,-2.05,58.4
TFF1 (GeneID 7031),2,0.826,98.3,0.44,97.9
TFF1 (GeneID 7031),3,0.294,87.7,0.0937,95.6
TEKT3 (GeneID 64518),1,2.47,131,2.25,80.9
TEKT3 (GeneID 64518),2,-2.01,41.9,-2.09,81.1
TEKT3 (GeneID 64518),3,-1.19,58.2,-1.29,91.3
METTL13 (GeneID 51603),1,-0.429,73.4,-0.789,101
METTL13 (GeneID 51603),2,-1.54,51.4,-1.74,90.8
METTL13 (GeneID 51603),3,0.0384,82.6,-0.397,103
SLC33A2 (GeneID 113655),1,-0.817,65.6,-1.01,95.6
SLC33A2 (GeneID 113655),2,-1.2,57.9,-1.45,94.8
SLC33A2 (GeneID 113655),3,-0.958,62.8,-1.28,98.3
KNL1 (GeneID 57082),1,0.782,97.4,2.13,62.1
KNL1 (GeneID 57082),2,-0.283,76.2,0.16,81.7
KNL1 (GeneID 57082),3,0.466,91.2,1.28,72.8
TUB (GeneID 7275),1,0.434,90.5,-0.0992,104
TUB (GeneID 7275),2,0.15,84.9,0.158,91
TUB (GeneID 7275),3,0.476,91.3,-0.209,108
MIS18BP1 (GeneID 55320),1,3.06 (active),143,2.17,90
MIS18BP1 (GeneID 55320),2,-0.0672,80.6,-0.842,112
MIS18BP1 (GeneID 55320),3,0.902,99.8,1.02,85.4

Records above whose gene name starts with M or m:
gene knocked down,reagent no.,"total luciferase, z-score","total luciferase, % of control","luciferase per cell, z-score","viable cells, % of control"
METTL13 (GeneID 51603),1,-0.429,73.4,-0.789,101
METTL13 (GeneID 51603),2,-1.54,51.4,-1.74,90.8
METTL13 (GeneID 51603),3,0.0384,82.6,-0.397,103
MIS18BP1 (GeneID 55320),1,3.06 (active),143,2.17,90
MIS18BP1 (GeneID 55320),2,-0.0672,80.6,-0.842,112
MIS18BP1 (GeneID 55320),3,0.902,99.8,1.02,85.4
